No constants are given. Whether binding was seen depends on the method and setting. Binding can be weak; no strength is given.

In this experiment the target is recombinant MMR (species not said in the sentence). Kind of experiment: SPR.

B1: NbhmMMRm3.49 (VHH)
VHH: QVQLQESGGGLVQPGGSLRLSCAASGFSLDYYAIGWFRQAPGKEREGISCISYKGGSTTYADSVKGRFTISKDNAKNTAYLQMNSLKPEDTGIYSCAAGFVCYNYDYWGQGTQVTVSS
Regarding B1, the binding result was “binds”.

B2: NbhMMRm3.1 (VHH)
VHH: QVQLQESGGGLVQPGGSLRLSCAASGFTLDYYAIGWFRQAPGKEREGISCISYKGGSTTYADSVKGRFTISKDNAKNTAYLQMNNLKPEDTGIYYCAAGFVCYNYDYWGPGTQVTVSS
With B2, the binding entry was “binds”.

The values are drawn from patent US20160024213A1 (VIB VZW, published 2016).
